The text below walks through data of paper PMC4955146, “Virtual screening and experimental validation of novel histone deacetylase inhibitors” (BMC Pharmacology & Toxicology, 2016).

Structures are written as SMILES.

In experiment [1] the test system is L02 cells. Briefly: MTT cell viability assay, L02. The conditions noted are these: Homo sapiens, 48 h of treatment, 3 % serum. In kind it is cell-based.
The test system of experiment [2] is MCF-10A cells. Put plainly: MTT cell viability assay, MCF-10A. The format is cell-based. To be noted: Homo sapiens, 48 h of treatment, 3 % serum.

Consider `O=C(CCCCCCC(=O)Nc1ccccc1)NO` [SAHA, Suberoylanilide hydroxamic acid], for which the half-maximal inhibitory concentration (IC50) – broadly, the concentration needed to halve the response being measured – turned out to be 85 ± 2 µM in experiment [1] and 59 ± 10 µM in experiment [2].
